Reference: US20160333110A1
No constants are given. Whether binding was seen depends on the method and setting. Some results given as binding are weak or reduced against the parent protein; the word gives no strength.

Target: T1, hmTROP-2-B chimeric protein (human; mouse), Q8BGV3
T1 chain: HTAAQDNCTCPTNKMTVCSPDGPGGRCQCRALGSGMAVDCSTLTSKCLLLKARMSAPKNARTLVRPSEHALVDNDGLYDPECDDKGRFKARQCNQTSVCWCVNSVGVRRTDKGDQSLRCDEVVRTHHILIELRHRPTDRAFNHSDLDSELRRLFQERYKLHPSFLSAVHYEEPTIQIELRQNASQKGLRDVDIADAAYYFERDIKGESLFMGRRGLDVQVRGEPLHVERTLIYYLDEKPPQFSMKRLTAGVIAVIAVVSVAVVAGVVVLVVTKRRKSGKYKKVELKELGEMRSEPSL
Assay: flow cytometry (dot plot FL1-H against FL2-H) on HEK293 cells transiently expressing hmTROP-2-B
Conditions: remark: other sources report otherwise

- binding: binds
B1: anti-hTROP-2 monoclonal antibody clone K5-116-2-1 (antibody, mouse IgG2a, V domains shown)
VH: QVQLQQPGAELVRPGASVKLSCKASGYTFTSYWITWVKQRPGQGLEWIGNIYPSDSYTNYNQKFRDKATLTVDKSSSTAYMQLSSPTSEDSAVYYCSALFDYWGQGTTLTVSS
VL: DILLTQSPAILSVSPGERVSFSCRASQSIGTSIHWYQQRTNGSPRLLIKYASESISGIPSRFSGSGSGTDFILSINSVESEDIADYYCQQSNSWPFTFGSGTKLEIK
